These are yes or no findings as the source states them, for the method shown. Binding seen in cells or lysates may run through a third protein. Binding calls can cover weak binding; strength is not graded here. Sequences can lack the tags named with a protein.

Assay [1] addresses T1, RPM1-interacting protein4 of Arabidopsis, N-terminally FLAG-tagged (FLAG:AtRIN4) (Arabidopsis) (UniProt Q8GYN5).
T1 sequence: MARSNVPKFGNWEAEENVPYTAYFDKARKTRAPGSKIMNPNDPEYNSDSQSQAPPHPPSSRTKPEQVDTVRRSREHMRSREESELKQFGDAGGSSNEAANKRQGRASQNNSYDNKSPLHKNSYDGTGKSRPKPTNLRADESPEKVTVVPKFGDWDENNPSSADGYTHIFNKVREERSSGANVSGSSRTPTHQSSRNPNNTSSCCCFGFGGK
In words: co-IP.

The target in assay [2] is AvrRpm2Psa (allele of Psa biovar 5), C-terminally HA-tagged (AvrRpm2Psa:HA) (Pseudomonas syringae pv. actinidiae (biovar 5)). Nature of the assay: co-IP.

On to “AvrRpm2Psa^Y125A, C-terminally HA-tagged (enzyme)”, for which the binding result in assay [1] is on record as “binds”.

“AvrRpm2Psa^H68A, C-terminally HA-tagged (enzyme)”: in assay [1], the binding result is on record as “binds”.

“AvrRpm2Psa (allele of Psa biovar 5), C-terminally HA-tagged (AvrRpm2Psa:HA) (enzyme)”: in assay [1], the binding result is “binds”.

B1: RPM1-interacting protein4 of Arabidopsis, N-terminally FLAG-tagged (FLAG:AtRIN4) (protein, UniProt Q8GYN5 1-211)
chain: MARSNVPKFGNWEAEENVPYTAYFDKARKTRAPGSKIMNPNDPEYNSDSQSQAPPHPPSSRTKPEQVDTVRRSREHMRSREESELKQFGDAGGSSNEAANKRQGRASQNNSYDNKSPLHKNSYDGTGKSRPKPTNLRADESPEKVTVVPKFGDWDENNPSSADGYTHIFNKVREERSSGANVSGSSRTPTHQSSRNPNNTSSCCCFGFGGK
As for B1, the binding result in assay [2] is recorded as “binds”.

Values taken from publication doi:10.1101/2021.09.01.458589.
